The record followed here is PMC11291904.

Amino acid sequences for entries named in this document (tags omitted). A change or cut given only in a name is not applied to a line headed by its entry.
UniProt P61960: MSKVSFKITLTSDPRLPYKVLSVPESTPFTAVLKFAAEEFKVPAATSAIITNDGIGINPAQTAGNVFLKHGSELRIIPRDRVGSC
UniProt P52732: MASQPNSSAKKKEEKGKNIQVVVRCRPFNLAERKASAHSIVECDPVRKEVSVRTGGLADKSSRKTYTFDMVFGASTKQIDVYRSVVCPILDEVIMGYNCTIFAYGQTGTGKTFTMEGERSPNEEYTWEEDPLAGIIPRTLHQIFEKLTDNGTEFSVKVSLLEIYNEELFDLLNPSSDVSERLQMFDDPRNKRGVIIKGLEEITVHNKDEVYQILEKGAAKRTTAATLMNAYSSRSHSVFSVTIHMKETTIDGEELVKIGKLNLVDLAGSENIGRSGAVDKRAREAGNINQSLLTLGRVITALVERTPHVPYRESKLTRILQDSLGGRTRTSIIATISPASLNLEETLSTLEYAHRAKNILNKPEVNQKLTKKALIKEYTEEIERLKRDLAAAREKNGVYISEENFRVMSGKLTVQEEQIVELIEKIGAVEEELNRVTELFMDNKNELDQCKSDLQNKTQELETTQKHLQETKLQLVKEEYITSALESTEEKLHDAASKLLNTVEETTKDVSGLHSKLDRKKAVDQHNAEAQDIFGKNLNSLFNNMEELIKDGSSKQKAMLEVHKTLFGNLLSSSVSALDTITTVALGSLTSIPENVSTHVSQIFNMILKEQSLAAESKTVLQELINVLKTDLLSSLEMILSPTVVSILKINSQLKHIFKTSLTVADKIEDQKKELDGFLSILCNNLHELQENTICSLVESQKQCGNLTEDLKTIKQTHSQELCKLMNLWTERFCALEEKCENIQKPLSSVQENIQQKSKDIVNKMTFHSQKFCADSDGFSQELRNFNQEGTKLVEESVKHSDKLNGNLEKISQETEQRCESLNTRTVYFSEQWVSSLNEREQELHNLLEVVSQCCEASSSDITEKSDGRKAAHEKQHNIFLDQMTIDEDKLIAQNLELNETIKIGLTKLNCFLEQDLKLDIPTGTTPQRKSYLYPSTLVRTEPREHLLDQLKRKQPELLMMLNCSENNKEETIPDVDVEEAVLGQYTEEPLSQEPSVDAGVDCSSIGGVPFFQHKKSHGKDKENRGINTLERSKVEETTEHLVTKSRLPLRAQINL

For this test, the target named is Flag-tagged mature UFM1 (UFM1-ΔC2) (UniProt P61960). Nature of the test: affinity purification with mass spectrometry; Flag-UFM1-ΔC2 expressed for 36 h in UFSP2 knockout HEK293T cells; NP-40 lysis buffer (50 mM Tris pH 7.4, 150 mM NaCl, 1% NP-40); anti-FLAG M2 beads overnight at 4 °C; SDS-PAGE and mass spectrometry; Flag-UFM1-ΔC3 as negative control.

No constants are given. Whether binding was seen depends on the method and setting. In cells and extracts the contact can be indirect. These calls come from enrichment with a bait or labelling near it, and not all partners need be listed.

Turning to “Kinesin-5 (Eg5), endogenous (from UniProt P52732 1-1056)”, the binding result is “binds”.
